Test results published in article PMC9932153.
No constants are given. Whether binding was seen depends on the method and setting. Binding seen in cells or lysates may run through a third protein. Here binding means that the protein was enriched with, or labelled near, the bait; the list need not be complete.

Chains of the proteins cited; added tags and fusions are not shown. Residues count along the entry.
UniProt Q9ULH1: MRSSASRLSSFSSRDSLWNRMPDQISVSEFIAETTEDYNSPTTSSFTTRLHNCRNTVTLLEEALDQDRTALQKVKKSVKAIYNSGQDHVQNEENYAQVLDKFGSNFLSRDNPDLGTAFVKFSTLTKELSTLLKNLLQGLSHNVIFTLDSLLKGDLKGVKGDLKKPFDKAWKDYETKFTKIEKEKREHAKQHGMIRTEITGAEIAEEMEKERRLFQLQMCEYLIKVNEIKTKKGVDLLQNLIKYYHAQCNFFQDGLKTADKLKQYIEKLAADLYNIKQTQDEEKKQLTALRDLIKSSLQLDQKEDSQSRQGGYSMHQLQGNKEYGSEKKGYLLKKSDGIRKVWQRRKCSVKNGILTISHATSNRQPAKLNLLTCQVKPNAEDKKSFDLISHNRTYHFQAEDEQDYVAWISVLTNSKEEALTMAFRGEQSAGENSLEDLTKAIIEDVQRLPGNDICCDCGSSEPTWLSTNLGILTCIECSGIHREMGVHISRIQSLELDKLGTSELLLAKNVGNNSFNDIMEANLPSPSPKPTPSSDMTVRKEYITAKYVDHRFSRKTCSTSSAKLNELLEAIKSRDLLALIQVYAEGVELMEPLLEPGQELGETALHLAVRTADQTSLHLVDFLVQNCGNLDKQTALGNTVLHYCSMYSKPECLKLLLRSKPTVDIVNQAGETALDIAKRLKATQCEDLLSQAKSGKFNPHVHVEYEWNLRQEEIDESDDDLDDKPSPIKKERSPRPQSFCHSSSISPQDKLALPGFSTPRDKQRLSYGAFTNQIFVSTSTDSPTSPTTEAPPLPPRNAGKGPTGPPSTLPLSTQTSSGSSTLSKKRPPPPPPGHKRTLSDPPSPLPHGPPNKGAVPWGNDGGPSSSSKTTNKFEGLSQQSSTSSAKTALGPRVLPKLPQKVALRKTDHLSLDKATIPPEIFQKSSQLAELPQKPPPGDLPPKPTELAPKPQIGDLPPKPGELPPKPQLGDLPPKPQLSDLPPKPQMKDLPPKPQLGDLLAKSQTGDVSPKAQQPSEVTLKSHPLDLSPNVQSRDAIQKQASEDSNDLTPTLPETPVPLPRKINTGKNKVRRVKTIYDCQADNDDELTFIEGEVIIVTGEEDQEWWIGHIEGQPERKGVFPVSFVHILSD
UniProt P08174, residues 35-353: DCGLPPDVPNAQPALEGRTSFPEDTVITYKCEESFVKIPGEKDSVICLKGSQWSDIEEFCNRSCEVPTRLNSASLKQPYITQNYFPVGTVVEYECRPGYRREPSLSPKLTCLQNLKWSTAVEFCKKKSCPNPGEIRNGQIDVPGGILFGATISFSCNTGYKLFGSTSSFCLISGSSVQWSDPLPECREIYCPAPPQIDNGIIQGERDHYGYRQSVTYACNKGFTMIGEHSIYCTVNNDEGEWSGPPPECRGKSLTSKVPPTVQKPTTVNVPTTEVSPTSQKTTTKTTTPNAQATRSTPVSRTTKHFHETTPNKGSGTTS
UniProt P21333: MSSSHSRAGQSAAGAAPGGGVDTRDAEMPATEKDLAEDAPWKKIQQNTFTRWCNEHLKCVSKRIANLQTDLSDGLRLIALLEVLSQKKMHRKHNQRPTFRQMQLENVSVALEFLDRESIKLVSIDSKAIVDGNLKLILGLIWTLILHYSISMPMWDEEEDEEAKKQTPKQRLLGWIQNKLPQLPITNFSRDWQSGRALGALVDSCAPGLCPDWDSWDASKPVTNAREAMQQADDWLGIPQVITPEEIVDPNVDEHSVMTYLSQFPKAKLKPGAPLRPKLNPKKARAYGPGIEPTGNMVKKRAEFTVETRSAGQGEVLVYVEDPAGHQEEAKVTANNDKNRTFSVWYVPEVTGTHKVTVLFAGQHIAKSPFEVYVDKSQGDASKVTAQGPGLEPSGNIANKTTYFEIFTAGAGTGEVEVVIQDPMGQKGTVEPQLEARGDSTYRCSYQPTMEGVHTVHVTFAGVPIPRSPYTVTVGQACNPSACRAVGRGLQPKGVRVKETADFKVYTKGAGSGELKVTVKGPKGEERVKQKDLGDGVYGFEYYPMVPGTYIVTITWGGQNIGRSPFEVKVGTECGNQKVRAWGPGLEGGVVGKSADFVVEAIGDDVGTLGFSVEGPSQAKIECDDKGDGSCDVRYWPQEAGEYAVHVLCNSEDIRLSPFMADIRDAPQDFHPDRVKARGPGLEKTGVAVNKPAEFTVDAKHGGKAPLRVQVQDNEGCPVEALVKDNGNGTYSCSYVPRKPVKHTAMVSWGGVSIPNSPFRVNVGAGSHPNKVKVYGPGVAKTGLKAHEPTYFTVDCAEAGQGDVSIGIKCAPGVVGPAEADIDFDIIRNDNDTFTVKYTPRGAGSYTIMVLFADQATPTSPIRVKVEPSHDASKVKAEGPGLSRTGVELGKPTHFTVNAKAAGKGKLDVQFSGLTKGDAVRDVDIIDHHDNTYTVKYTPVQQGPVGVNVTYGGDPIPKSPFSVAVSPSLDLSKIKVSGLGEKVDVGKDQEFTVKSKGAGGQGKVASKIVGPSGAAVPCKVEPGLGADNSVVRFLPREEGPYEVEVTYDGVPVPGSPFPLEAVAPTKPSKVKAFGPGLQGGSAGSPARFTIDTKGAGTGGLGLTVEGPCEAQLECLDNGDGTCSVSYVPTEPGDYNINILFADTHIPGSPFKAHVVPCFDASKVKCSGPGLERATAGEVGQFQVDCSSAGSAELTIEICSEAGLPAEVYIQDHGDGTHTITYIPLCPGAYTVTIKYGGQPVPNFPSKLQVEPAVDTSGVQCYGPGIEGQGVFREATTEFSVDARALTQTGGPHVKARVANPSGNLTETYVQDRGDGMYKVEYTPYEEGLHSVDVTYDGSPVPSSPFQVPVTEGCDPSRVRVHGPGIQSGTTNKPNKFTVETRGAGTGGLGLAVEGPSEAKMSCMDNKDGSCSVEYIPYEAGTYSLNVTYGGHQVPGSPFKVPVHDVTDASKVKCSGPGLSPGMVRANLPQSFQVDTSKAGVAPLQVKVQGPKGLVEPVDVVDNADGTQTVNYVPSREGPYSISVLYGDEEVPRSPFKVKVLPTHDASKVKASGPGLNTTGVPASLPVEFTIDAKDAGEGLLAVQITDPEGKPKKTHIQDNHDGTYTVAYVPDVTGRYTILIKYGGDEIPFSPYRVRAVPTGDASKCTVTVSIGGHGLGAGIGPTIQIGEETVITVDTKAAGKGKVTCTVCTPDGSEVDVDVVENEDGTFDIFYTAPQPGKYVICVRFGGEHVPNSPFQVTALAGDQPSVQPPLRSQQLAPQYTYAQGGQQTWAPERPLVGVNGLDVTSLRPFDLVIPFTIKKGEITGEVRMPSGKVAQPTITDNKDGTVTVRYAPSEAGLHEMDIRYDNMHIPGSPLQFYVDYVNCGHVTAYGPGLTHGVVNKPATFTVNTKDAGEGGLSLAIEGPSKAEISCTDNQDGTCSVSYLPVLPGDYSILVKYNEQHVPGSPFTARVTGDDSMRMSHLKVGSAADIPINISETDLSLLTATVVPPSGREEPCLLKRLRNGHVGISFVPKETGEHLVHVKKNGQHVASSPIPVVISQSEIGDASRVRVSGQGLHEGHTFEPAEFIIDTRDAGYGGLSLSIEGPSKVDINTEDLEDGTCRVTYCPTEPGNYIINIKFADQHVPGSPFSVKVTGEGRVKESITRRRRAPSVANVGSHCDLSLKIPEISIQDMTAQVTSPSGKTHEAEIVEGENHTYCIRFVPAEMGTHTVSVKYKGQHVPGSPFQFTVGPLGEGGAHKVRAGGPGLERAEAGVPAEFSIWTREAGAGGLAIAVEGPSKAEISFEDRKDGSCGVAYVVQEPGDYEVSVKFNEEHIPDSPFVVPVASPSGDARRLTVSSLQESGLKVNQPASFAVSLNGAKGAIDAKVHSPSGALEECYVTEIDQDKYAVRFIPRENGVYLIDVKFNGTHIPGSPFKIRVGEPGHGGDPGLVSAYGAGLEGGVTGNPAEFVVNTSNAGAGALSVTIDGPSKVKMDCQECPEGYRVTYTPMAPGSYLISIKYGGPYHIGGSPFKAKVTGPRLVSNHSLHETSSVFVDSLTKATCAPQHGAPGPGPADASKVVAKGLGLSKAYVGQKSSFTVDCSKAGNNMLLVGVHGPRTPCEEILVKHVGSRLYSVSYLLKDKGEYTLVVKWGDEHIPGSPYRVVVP
UniProt P46940: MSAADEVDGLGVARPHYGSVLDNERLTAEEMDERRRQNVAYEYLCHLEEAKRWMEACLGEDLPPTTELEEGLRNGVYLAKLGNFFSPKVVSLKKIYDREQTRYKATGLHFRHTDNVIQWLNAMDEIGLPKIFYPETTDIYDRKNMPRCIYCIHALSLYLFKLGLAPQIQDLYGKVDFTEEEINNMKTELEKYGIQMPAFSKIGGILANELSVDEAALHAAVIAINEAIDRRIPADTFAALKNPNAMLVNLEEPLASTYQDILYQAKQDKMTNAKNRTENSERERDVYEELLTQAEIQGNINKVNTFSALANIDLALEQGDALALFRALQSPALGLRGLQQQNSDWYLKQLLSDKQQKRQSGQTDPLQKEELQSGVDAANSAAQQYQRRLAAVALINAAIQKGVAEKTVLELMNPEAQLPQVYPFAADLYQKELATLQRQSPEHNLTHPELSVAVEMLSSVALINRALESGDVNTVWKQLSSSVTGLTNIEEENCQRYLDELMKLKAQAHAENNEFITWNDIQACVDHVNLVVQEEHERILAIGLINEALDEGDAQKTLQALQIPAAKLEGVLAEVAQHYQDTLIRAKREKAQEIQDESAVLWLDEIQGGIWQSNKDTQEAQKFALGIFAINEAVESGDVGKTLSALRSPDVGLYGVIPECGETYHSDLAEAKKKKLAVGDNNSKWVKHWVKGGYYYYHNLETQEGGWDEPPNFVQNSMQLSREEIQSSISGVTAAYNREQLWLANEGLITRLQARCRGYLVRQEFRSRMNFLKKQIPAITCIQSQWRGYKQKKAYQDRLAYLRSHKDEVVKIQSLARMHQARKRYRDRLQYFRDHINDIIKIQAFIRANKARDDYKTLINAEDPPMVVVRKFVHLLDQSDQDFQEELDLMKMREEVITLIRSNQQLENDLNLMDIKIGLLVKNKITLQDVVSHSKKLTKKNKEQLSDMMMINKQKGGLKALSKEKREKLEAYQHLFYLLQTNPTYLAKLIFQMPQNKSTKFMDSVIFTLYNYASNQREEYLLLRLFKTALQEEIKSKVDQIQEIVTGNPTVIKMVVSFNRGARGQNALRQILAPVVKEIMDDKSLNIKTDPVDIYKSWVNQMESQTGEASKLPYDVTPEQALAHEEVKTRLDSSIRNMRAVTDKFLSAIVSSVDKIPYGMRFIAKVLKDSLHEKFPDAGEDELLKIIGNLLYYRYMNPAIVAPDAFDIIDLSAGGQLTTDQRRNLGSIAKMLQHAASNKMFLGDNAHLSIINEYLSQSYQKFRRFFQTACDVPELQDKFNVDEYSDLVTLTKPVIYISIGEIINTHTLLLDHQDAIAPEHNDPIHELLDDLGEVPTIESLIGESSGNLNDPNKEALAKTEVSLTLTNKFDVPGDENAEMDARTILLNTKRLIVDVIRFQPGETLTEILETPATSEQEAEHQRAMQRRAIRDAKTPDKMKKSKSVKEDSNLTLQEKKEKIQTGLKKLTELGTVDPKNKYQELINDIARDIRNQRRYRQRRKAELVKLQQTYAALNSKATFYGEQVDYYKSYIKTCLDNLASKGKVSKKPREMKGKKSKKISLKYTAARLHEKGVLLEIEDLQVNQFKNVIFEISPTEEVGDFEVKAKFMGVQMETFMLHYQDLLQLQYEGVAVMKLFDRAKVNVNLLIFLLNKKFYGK

B1: RALA (protein, UniProt P11233 1-206)
chain: MAANKPKGQNSLALHKVIMVGSGGVGKSALTLQFMYDEFVEDYEPTKADSYRKKVVLDGEEVQIDILDTAGQEDYAAIRDNYFRSGEGFLCVFSITEMESFAATADFREQILRVKEDENVPFLLVGNKSDLEDKRQVSVEEAKNRAEQWNVNYVETSAKTRANVDKVFFDLMREIRARKMEDSKEKNGKKKRKSLAKRIRERCCIL

Each molecule was assayed against ASAP1 (Arf GTP-activating protein), endogenous (human (endogenous in SGC-7901)) (UniProt Q9ULH1) (assay: affinity purification with mass spectrometry; immunoprecipitation with an antibody against ASAP1 from GC cells, label-free mass spectrometric analysis).

binding, binds:
CD55 (from UniProt P08174 35-353)
FLNA (from UniProt P21333 1-2647)
IQGAP1 (Ras GTPase-activating-like protein), endogenous (from UniProt P46940 1-1657)
PLEC (from UniProt Q15149 1-4684)
B1
